Data as given in article PMC8193582.

Chains of the proteins cited; added tags and fusions are not shown. Lines headed by an entry give the natural chain unless they say otherwise; changes in a name come on top.
UniProt O94851: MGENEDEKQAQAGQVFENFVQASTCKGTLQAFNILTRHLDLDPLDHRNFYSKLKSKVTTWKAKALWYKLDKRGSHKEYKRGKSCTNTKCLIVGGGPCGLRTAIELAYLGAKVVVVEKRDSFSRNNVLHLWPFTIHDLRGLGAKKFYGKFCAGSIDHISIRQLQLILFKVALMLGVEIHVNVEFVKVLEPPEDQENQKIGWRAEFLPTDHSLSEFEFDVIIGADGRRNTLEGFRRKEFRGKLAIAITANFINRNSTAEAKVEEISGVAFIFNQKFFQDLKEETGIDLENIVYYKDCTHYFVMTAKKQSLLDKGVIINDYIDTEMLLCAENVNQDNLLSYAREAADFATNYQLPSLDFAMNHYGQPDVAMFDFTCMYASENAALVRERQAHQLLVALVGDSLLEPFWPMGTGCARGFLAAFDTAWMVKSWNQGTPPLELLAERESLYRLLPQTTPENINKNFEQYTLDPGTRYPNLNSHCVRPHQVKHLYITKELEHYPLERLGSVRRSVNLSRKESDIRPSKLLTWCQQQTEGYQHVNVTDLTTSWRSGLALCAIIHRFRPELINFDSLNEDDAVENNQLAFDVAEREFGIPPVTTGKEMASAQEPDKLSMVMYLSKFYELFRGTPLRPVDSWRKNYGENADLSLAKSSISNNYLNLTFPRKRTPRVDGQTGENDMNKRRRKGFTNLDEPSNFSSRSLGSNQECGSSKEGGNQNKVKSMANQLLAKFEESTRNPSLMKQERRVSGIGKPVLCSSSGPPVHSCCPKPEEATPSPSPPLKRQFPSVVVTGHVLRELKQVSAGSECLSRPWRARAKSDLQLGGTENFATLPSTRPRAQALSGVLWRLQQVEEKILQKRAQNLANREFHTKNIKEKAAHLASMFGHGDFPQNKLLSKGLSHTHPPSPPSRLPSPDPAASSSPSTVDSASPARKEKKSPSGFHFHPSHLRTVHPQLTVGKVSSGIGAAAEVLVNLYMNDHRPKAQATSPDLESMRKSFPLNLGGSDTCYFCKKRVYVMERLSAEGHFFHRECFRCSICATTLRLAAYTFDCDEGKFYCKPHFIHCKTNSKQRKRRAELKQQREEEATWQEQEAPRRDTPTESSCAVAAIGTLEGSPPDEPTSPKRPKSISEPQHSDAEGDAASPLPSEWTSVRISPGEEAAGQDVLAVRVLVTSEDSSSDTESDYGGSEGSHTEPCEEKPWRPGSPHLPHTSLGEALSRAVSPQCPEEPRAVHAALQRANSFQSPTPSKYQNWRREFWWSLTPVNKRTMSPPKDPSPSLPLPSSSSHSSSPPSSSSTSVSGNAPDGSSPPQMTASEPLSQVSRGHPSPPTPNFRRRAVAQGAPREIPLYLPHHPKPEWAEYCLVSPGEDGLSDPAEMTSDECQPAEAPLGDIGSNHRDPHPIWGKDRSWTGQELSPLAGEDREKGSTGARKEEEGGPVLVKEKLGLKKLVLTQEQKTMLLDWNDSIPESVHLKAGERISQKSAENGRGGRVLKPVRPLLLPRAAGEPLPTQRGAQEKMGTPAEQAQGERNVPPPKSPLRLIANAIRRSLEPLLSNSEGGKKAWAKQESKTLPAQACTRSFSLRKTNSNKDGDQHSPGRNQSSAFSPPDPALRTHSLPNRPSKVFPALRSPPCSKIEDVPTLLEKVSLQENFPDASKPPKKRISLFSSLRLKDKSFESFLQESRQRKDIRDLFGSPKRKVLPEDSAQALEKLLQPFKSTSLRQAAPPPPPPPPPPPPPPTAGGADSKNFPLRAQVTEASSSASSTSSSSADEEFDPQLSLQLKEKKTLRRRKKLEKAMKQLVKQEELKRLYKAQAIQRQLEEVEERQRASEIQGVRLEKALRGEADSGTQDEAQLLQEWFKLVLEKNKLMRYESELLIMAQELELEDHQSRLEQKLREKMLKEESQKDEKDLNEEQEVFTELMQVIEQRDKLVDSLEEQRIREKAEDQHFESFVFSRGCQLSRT
UniProt Q9ULV4: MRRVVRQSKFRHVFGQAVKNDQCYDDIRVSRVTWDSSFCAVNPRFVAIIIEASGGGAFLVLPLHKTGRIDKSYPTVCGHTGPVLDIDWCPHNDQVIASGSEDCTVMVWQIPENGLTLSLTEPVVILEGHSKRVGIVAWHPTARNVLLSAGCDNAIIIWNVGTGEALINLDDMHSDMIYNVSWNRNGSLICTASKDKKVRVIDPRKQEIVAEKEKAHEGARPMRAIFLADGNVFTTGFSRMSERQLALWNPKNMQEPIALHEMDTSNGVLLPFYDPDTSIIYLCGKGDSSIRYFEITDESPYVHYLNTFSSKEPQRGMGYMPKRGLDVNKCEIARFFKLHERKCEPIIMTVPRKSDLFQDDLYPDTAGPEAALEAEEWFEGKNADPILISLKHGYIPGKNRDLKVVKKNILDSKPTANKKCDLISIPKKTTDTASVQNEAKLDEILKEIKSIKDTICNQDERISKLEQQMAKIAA

Biological target: GFP-tagged MICAL2 (human) (UniProt O94851)
Experiment: co-IP; GFP-Trap agarose bead pulldown from lysates of HeLa cells stably expressing the GFP-tagged bait; cells treated with 200 nM Latrunculin A for 1 h; lysis buffer 50 mM Hepes pH 7.5, 150 mM NaCl, 1.5 mM MgCl2, 1 mM EGTA, 1% Triton X-100, 10% glycerol, 200 nM Latrunculin A; read by immunoblot

binding: binds
Substance: coronin 1C (endogenous) (from UniProt Q9ULV4 1-474)

Results are given in words; binding and its absence hold for the method and conditions named. In cells and extracts the contact can be indirect. Binding can be weak; no strength is given.
